In paper doi:10.1101/2022.01.26.477835 one finds binding data, which are given here for 9 substances.

Amino acid sequences for entries named in this document (tags omitted). A change or cut given only in a name is not applied to a line headed by its entry. Residues count along the entry.
UniProt Q8R455, whole entry: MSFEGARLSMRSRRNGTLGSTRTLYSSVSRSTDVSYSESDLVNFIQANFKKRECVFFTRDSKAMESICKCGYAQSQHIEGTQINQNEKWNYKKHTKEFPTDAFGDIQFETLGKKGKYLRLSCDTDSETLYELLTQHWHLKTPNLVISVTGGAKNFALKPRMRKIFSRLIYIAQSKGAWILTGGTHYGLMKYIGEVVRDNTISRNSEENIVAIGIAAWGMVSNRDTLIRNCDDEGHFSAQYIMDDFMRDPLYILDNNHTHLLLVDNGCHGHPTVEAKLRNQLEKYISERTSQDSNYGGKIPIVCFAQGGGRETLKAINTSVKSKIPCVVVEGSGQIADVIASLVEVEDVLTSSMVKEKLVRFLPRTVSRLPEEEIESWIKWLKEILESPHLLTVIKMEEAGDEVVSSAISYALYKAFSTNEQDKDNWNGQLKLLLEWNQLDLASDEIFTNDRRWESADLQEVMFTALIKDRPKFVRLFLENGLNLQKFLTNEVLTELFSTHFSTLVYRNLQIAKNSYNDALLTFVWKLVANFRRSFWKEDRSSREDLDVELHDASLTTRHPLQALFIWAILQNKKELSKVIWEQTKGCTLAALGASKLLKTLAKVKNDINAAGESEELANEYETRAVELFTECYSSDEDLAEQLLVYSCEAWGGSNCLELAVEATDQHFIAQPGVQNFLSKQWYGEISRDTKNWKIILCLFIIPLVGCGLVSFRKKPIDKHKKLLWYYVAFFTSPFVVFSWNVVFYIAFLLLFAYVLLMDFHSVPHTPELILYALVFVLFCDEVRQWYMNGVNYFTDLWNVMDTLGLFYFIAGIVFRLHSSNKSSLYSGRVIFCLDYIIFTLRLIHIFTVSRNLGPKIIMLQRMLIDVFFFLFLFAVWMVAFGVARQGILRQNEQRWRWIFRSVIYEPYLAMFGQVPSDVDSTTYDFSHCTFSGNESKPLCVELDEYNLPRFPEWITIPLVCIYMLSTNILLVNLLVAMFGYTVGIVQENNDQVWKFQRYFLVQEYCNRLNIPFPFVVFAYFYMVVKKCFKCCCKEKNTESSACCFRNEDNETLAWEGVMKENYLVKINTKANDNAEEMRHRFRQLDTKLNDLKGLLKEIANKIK
UniProt Q8R455, 980-1104: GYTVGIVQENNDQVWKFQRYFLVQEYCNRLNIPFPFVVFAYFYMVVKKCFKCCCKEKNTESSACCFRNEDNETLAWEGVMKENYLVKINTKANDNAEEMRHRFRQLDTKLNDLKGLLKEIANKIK
UniProt P63104, whole entry: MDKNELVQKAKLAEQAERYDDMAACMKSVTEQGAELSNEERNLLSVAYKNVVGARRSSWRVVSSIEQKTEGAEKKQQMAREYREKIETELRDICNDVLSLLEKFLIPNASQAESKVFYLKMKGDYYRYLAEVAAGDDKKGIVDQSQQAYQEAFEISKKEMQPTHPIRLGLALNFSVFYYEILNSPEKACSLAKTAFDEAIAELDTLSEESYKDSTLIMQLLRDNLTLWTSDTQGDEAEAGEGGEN
UniProt Q7Z2W7, whole entry: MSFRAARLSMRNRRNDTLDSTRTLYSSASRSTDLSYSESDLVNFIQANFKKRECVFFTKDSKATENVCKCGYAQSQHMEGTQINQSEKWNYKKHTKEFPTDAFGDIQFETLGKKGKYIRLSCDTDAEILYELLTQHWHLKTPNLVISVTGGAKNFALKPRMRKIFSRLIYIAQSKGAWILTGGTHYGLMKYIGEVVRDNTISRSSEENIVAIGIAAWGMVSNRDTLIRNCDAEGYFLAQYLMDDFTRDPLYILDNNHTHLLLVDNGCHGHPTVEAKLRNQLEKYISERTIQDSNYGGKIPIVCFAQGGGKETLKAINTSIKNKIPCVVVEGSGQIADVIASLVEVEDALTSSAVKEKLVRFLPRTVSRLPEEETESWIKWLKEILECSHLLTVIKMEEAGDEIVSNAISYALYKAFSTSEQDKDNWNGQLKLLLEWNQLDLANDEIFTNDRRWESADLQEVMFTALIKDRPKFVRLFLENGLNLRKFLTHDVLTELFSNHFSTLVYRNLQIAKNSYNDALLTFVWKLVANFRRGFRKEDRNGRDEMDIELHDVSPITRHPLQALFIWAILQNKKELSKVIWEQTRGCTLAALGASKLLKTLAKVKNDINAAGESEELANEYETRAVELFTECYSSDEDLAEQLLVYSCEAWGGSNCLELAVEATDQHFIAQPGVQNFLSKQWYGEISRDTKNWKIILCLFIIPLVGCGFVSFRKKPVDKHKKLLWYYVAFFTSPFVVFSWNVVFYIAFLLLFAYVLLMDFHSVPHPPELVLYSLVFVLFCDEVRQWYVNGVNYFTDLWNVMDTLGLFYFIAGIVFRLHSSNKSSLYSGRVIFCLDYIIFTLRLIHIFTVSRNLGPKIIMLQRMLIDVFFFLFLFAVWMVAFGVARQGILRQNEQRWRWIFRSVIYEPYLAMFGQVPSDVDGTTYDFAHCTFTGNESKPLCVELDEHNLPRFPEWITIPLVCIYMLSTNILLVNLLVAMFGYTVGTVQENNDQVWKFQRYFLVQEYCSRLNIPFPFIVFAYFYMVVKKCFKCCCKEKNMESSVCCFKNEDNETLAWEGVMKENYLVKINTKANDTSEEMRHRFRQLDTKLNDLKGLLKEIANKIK
UniProt P51451, whole entry: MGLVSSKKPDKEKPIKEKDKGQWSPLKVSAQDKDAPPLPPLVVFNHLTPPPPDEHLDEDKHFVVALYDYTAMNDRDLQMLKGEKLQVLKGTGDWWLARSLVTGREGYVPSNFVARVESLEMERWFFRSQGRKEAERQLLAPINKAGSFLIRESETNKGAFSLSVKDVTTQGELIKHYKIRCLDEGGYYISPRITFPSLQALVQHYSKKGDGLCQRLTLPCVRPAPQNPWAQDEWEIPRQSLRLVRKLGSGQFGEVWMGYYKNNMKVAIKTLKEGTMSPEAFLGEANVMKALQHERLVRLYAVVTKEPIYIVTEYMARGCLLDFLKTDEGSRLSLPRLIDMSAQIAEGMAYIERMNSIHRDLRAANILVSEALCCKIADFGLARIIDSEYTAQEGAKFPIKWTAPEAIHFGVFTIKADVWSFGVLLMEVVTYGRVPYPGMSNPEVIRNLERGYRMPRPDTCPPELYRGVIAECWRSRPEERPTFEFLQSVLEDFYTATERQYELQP
UniProt P06239, whole entry: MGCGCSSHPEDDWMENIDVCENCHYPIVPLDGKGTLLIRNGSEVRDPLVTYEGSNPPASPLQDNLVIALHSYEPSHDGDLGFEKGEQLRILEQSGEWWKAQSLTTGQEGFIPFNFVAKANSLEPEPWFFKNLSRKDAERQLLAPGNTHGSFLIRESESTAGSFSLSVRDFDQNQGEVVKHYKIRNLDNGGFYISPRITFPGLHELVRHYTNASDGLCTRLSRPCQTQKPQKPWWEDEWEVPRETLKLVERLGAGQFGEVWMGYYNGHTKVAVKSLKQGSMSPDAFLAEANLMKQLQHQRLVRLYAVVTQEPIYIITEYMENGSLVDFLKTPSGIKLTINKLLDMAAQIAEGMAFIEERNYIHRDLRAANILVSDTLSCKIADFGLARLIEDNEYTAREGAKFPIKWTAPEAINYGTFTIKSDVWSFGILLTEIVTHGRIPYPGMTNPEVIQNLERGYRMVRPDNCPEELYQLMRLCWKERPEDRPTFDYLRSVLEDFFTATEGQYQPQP

Test [1] addresses Flag-tagged N-terminus of TRPM8 (Flag-M8N) (rat) (UniProt Q8R455). Nature of the test: co-IP.
For test [2], the target named is Flag-tagged mutant TRPM8-Y1022F (Flag-M8-Y1022F) (rat) (UniProt Q8R455). Briefly: cross-linking.
The target in test [3] is GST-tagged C-terminus of TRPM8 (GST-M8C) (rat) (UniProt Q8R455). Briefly: pull-down.
Test [4] deals with GFP-tagged C-terminus of TRPM8 (GFP-M8C) (rat) (UniProt Q8R455). Nature of the test: co-IP.
The target of test [5] is Flag-tagged full-length TRPM8 (Flag-TRPM8) (rat) (UniProt Q8R455). Briefly: co-IP.
Test [6] deals with Flag-tagged C-terminus of TRPM8 (M8-C) (rat) (UniProt Q8R455). Nature of the test: co-IP.
Test [7] deals with Flag-tagged mutant TRPM8-Y1022F (Flag-M8-Y1022F) (rat) (UniProt Q8R455). Briefly: co-IP.
The target is the same in test [8]. Nature of the test: co-IP. This is another data set of the same source.
In test [9] the target is Flag-tagged full-length TRPM8 (Flag-TRPM8) (rat) (UniProt Q8R455). Nature of the test: co-IP. The source holds these as a separate data set.
Test [10] has as its target 14-3-3ζ (endogenous) (human (endogenous in PANC-1 and MCF7)) (UniProt P63104). Briefly: co-IP.
Test [11] addresses TRPM8 (endogenous) (human (endogenous in PANC-1)) (UniProt Q7Z2W7). Nature of the test: co-IP.

Like-named read-outs stand apart in the source and are kept apart here. Results are given in words; binding and its absence hold for the method and conditions named. Binding seen in cells or lysates may run through a third protein. Some binding calls cover weakened binding; strength is not graded here.

As for “GFP-tagged C-terminus of TRPM8 (GFP-M8C) (from UniProt Q8R455 980-1104) (domain or fragment)”, the binding entry in test [1] was “binds”.
Take “Flag-tagged mutant TRPM8-Y1022F (Flag-M8-Y1022F) (from UniProt Q8R455 1-1104)”: in test [2], the binding result was “binds”.
“GFP fused 14-3-3ζ (GFP-14-3-3ζ) (from UniProt P63104 1-245)”: the binding result in test [3] is reported as “binds”.
“HA-tagged BLK (HA-BLK) (from UniProt P51451 1-505) (enzyme)”: the binding entry in [4], in [5] and in test [3] was “binds” each time.
For “HA-tagged LCK (HA-LCK) (from UniProt P06239 1-509) (enzyme)”, the binding result in test [1], in test [4], in [5], in test [6] and in test [3] was “binds” throughout.
On to “GFP-tagged wild type TRPM8 (GFP-TRPM8) (from UniProt Q8R455 1-1104)”, for which, in test [7], the binding entry was “binds”.
For the substance “14-3-3ζ (endogenous) (from UniProt P63104 1-245)”, the binding entry in test [5], in test [8] and in [9] was “binds” each time.
Consider “TRPM8 (endogenous) (from UniProt Q7Z2W7 1-1104)”, for which, in test [10], the binding entry was “binds”.
Take “LCK (endogenous) (from UniProt P06239 1-509) (enzyme)”: the binding result in [11] is on record as “binds”.
